Tested on: methoxamine treated rabbits
Assay: Early after depolarizations (EAD) and polymorphic ventricular tachycardia (PVT) in methoxamine treated anesthetized rabbits
Assay type: in vivo, New Zealand White rabbits
Conditions: for Total accumulated dose of test compound when the maximum MAPD90 increase was measured: value in parentheses in MAPD90 column; for Total accumulated dose of test compound when the maximum QTc increase was measured: value in parentheses in QTc column
Experimental: The Formula I compounds were evaluated for their ability to produce early after depolarizations (EAD) and polymorphic ventricular tachycardia (PVT) in methoxamine treated rabbits. The method used was as follows:
Male New Zealand White rabbits (2.5 - 3.5 kg,) were pretreated with subcutaneous morphine sulfate (5 mg/kg) 30 minutes prior to anesthesia. Anesthesia was induced by infusion of α-chloralose (90 - 120 mg/kg) through a marginal ear vein over a period of 20 to 30 minutes. A tracheotomy was performed and the rabbit was respirated with room air (5 - 6 cc/kg) using a small animal ventilator (Columbus Instruments, Columbus, OH). Respiration rate, and tidal volume were adjusted, and supplemental oxygen administered to maintain arterial blood gases and pH within normal physiologic ranges. Catheters were placed in a jugular vein and carotid artery for administration of drugs, and measurement of arterial blood pressure, respectively. A 4 French monophasic action potential catheter was introduced through a jugular vein for monitoring of right ventricular monophasic action potential duration which was measured at 90% repolarization (MAPD90), A lead II ECG and arterial blood pressure were monitored throughout the experiments.
All records were obtained on a multichannel recorder (Gould ES 2000, Cleveland, OH) and experiments were continuously recorded on FM magnetic tape (TEAC 501, Montebello, CA) for subsequent playback and analysis.
Following experimental preparation, the rabbits were allowed to equilibrate for 10 minutes before baseline measurements of heart rate, aortic blood pressure, and QTc interval were made. During the equilibration period, monophasic action potentials were monitored and the catheter adjusted to produce action potentials with a stable amplitude. Following baseline measurements, the α1 agonist methoxamine was infused at a rate of 10 µg/kg/minute at an infusion volume of 12.0 ml/hr. After 15 minutes of methoxamine administration, intravenous infusion of saline (vehicle control) or a class III agent was begun. All agents were administered as a continuous infusion over a 1 hour period. Measurement of heart rate, aortic blood pressure. QTc interval (as defined below), and MAPD90 were repeated at several time points during drug administration to provide dose-response relationships. QTc and MAPD90 were also monitored to insure that maximal class III effects on these parameters had been achieved.
Total accumulated dose at the first incidence of PVT was also measured. Repolarization arrhythmias were characterized as early after depolarizations and extrasystoles during repolarization which produced extrasystoles in lead II ECG. PVT was considered to have occurred if 3 or more closely coupled repetitive extrasystoles with a twisting or torsioning QRS morphology were observed.
QT intervals were corrected for heart rate changes using the formula QTc = QT/square root R-R interval. EADs were compared between treatment groups at stable monophasic action potential amplitudes (APA) and are reported as a percent of the APA.
Examples of Formula I compounds evaluated in this manner are collected in Table II. A measure of Class III antiarrhythmic activity is indicated by an increase in QTc and MAPD90. The proarrhythmic potential is indicated by the incidence and magnitude of the EADs and by the ratio of the incidence of PVT to the total number of animals tested. The corresponding data for ibutilide, a compound of U.S. Patent 5,155,268, and the racemc forms Examples (R.S) (compounds of PCT WO 91/01299) are shown for comparison.

Row | Molecule | Total accumulated dose of test compound when the maximum MAPD90 increase was measured | Total accumulated dose of test compound when the maximum QTc increase was measured
1 | CCN(CCCCCC(C)F)CCCC(O)c1ccc(NS(C)(=O)=O)cc1 (racemic) [(R,S) 2] | 0.25 mg/kg | 0.25 mg/kg
2 | (S)-(-)-N-[4-[4-[Ethyl(6-fluoroheptyl)amino]-1-hydroxybutyl]phenyl]methanesulfonamide, (E)-2-Butenedioate (2:1 salt) [Example 2] | 1 mg/kg | 0.25 mg/kg
3 | CCCCCCCN(CC)CCCC(O)c1ccc(NS(C)(=O)=O)cc1 (centres unmarked) [Ibutilide, ibutilide] | 10 mg/kg | 10 mg/kg
4 | (S)-(-)-N-[4-[4-[Ethyl(7-fluoroheptyl)amino]-1-hydroxybutyl]phenyl] methanesulfonamide, (E)-2-Butenedioate (2:1 salt) [Example 1] | 1 mg/kg | 1 mg/kg
5 | CCN(CCCCCCCF)CCCC(O)c1ccc(NS(C)(=O)=O)cc1 (racemic) [(R,S) 1] | 1 mg/kg | 0.5 mg/kg
6 | CCN(CCCCCC(C)(C)F)CCC[C@H](O)c1ccc(NS(C)(=O)=O)cc1 [Example 3, (S)-(-)-N-[4-[4-[Ethyl(6-fluoro-6-methylheptyl)amino]-1-hydroxybutyl]phenyl]-methanesulfonamide] | 3 mg/kg | 1 mg/kg
7 | CCN(CCCCCC(C)(C)F)CCCC(O)c1ccc(NS(C)(=O)=O)cc1 (racemic) [(R,S) 3] | 1 mg/kg | 0.25 mg/kg

Source: patent EP0802900B1, “ANTIARRHYTHMIC (S)-ENANTIOMERS OF METHANESULFONAMIDES” (priority 1995, dated 1996)
